This note sets out measurements from publication PMC9749133.

Sequences of proteins named here, by UniProt entry; tags and fusion partners are left off. A change or cut given only in a name is not applied to a line headed by its entry. Residues count along the entry.
UniProt P25776: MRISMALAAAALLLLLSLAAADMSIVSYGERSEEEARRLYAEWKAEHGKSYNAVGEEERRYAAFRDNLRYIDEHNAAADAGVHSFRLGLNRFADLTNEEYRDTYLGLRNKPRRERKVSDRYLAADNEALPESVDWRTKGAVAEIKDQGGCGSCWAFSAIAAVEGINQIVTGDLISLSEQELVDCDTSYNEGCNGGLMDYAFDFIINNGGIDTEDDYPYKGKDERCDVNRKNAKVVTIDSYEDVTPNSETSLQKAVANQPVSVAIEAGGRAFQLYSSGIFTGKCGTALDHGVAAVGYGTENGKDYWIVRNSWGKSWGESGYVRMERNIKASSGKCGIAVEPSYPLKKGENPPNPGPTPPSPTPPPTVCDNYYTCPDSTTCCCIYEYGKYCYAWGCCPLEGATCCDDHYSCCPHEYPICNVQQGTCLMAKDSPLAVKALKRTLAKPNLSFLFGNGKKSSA
BD-OCP-4 (OCP 1-348 aa, in pGBKT7) (rice (Oryza sativa)): residues 1-348 of P25776
BD-OCP-2 (OCP 111-348 aa, in pGBKT7) (rice (Oryza sativa)): residues 111-348 of P25776
UniProt P49027: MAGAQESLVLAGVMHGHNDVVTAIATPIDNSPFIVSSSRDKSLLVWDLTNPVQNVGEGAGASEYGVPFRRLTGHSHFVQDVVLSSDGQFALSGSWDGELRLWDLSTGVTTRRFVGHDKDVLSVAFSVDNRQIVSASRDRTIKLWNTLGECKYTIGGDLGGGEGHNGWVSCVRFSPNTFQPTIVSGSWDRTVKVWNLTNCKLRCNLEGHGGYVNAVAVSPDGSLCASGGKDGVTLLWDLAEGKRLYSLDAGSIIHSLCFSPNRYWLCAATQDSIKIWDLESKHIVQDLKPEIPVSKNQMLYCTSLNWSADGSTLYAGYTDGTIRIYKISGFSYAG

Assay [1] has as its target BD-OCP (oryzain alpha chain precursor, full length, in pGBKT7) (rice (Oryza sativa)) (UniProt P25776). In words: two-hybrid; directed test in yeast strain Gold Y2H: pGBKT7 (BD) bait and pGADT7 (AD) prey; growth on SD/-Ade-His-Leu-Trp with X-alpha-gal, 30°C.
Assay [2] has as its target BD-OCP-2 (OCP 111-348 aa, in pGBKT7) (rice (Oryza sativa)) (UniProt P25776). The assay is described as above.
The target of assay [3] is BD-OCP-4 (OCP 1-348 aa, in pGBKT7) (rice (Oryza sativa)) (UniProt P25776). The assay is described as above.
For assay [4], the target named is T1, BD-OsSNAP32 (CDS of OsSNAP32 in pGBKT7) (rice (Oryza sativa)) (UniProt Q0E1I7).
T1 sequence: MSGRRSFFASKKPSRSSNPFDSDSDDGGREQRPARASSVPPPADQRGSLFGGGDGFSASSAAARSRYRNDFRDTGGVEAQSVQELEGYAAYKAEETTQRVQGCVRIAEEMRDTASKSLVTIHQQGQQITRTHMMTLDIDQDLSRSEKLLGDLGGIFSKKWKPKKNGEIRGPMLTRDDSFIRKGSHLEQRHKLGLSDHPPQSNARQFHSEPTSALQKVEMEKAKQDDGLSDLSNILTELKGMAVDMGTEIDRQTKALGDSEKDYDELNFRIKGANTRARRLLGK
Described as above.

The target of assay [5] is T2, pBridge-OsSNAP32 (coding region of OsSNAP32 in MCS1 of pBridge, alone or with OCP in MCS2) (rice (Oryza sativa)) (UniProt Q0E1I7).
T2 sequence: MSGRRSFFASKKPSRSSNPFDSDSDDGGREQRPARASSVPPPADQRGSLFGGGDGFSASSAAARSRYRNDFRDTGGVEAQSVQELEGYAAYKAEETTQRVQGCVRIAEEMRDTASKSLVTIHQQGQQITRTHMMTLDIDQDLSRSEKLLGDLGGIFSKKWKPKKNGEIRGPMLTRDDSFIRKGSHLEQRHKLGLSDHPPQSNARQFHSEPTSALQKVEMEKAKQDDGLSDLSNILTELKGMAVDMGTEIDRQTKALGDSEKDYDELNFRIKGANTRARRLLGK
In words: yeast three-hybrid; pBridge with OsSNAP32 in MCS1 and/or OCP in MCS2, co-transformed with AD-OsRACK1A into Gold Y2H; growth on SD/-Ade-His-Leu-Met-Trp with X-alpha-gal, 30°C.

For assay [6], the target named is OCP-Myc (rice (Oryza sativa)) (UniProt P25776). In words: co-IP; OCP-Myc co-expressed with mCherry fusions in rice protoplasts; lysate (50 mM Tris-HCl pH 7.5, 150 mM NaCl, 0.5% Triton X-100, 0.5% NP-40) incubated with Myc tag-Nanoab-Agarose Beads 2 h at 4°C; blot with anti-Myc and anti-mCherry.
The target in assay [7] is cYFP-OCP (full-length coding region of OCP in pVYCE) (rice (Oryza sativa)) (UniProt P25776). The experiment in a line: split reporter; BiFC: cYFP-OCP with nYFP fusions in N. benthamiana leaves by Agrobacterium infiltration; fluorescence read after 3 or 4 days.

No constants are given. Whether binding was seen depends on the method and setting. For part of these data: Binding calls can cover weak binding; strength is not graded here. For part of these data: Binding seen in cells or lysates may run through a third protein. For part of these data: Sequences can lack the tags named with a protein.

In the case of “AD-OsRACK1A (receptor for activated C kinase 1, full-length coding region in pGADT7) (from UniProt P49027)”, the binding entry in assay [1] was “binds”; in assay [2], “binds”; in assay [3], “binds”; in assay [4] it was “no binding”; in assay [5], “no binding”.
Turning to OsRACK1A-mCherry (from UniProt P49027), the binding result in assay [6] is on record as “binds”.
Turning to “nYFP-OsRACK1A (in pVYNE) (from UniProt P49027)”, the binding result in assay [7] was “binds”.

B1: nYFP-OsSNAP32 (in pVYNE) (protein, UniProt Q0E1I7 1-283)
chain: MSGRRSFFASKKPSRSSNPFDSDSDDGGREQRPARASSVPPPADQRGSLFGGGDGFSASSAAARSRYRNDFRDTGGVEAQSVQELEGYAAYKAEETTQRVQGCVRIAEEMRDTASKSLVTIHQQGQQITRTHMMTLDIDQDLSRSEKLLGDLGGIFSKKWKPKKNGEIRGPMLTRDDSFIRKGSHLEQRHKLGLSDHPPQSNARQFHSEPTSALQKVEMEKAKQDDGLSDLSNILTELKGMAVDMGTEIDRQTKALGDSEKDYDELNFRIKGANTRARRLLGK
As to B1, in assay [7], the binding entry is on record as “binds”.

B2: OsSNAP32-mCherry (protein, UniProt Q0E1I7 1-283)
chain: MSGRRSFFASKKPSRSSNPFDSDSDDGGREQRPARASSVPPPADQRGSLFGGGDGFSASSAAARSRYRNDFRDTGGVEAQSVQELEGYAAYKAEETTQRVQGCVRIAEEMRDTASKSLVTIHQQGQQITRTHMMTLDIDQDLSRSEKLLGDLGGIFSKKWKPKKNGEIRGPMLTRDDSFIRKGSHLEQRHKLGLSDHPPQSNARQFHSEPTSALQKVEMEKAKQDDGLSDLSNILTELKGMAVDMGTEIDRQTKALGDSEKDYDELNFRIKGANTRARRLLGK
Regarding B2, the binding result in assay [6] is listed as “binds”.
